In PubChem BioAssay (Tox21):
Inconclusive means that the source gave no clear call. Such entries were picked first, then a sample of the others. For part of these data: A potency beside an inconclusive call is a rough fit, not a confirmed value. Calls of active or inactive are those of the source. Unless noted, calls follow the shape of the full dose curve.

Chains of the proteins cited; added tags and fusions are not shown. Lines headed by an entry give the natural chain unless they say otherwise; changes in a name come on top.
UniProt P14416, whole entry, looked up: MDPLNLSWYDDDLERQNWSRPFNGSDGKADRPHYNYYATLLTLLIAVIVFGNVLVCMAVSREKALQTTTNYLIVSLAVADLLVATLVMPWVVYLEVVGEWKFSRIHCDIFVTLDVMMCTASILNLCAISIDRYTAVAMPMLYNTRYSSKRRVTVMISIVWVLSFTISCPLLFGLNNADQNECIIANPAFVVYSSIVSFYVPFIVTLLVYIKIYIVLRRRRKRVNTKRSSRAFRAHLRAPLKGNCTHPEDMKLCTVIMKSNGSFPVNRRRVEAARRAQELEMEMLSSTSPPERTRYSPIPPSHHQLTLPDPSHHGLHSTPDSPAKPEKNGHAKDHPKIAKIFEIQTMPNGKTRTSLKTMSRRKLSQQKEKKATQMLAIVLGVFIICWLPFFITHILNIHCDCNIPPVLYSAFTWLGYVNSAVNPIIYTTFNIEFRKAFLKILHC
UniProt P28223, whole entry, looked up: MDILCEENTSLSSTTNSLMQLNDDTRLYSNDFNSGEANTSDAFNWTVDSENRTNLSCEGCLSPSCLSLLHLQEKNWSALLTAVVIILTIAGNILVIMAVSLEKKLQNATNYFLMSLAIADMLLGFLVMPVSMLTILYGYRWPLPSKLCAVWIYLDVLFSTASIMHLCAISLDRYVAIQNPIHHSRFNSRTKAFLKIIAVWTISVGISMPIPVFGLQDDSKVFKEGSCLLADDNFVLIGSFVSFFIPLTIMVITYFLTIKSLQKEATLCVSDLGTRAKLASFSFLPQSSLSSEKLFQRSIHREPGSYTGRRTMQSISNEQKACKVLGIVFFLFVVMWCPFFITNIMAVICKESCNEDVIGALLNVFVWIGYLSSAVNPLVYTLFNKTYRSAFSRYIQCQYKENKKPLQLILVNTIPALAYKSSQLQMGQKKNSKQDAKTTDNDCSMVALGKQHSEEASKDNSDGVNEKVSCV
UniProt P11229: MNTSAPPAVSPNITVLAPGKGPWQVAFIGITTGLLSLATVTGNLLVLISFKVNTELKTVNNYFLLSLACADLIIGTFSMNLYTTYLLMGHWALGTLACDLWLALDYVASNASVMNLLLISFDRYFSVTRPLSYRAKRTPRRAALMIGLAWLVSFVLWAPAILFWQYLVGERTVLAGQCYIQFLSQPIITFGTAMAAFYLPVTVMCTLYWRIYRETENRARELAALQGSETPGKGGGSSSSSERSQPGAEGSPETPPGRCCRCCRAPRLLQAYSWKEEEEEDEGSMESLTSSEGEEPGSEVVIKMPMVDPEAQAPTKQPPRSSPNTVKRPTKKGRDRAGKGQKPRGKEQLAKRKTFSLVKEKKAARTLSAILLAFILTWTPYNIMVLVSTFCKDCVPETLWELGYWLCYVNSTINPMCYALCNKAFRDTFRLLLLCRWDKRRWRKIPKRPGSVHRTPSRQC

How the values were obtained:
[1] = Nuclear factor erythroid 2-related factor 2/antioxidant responsive element (Nrf2/ARE) small molecule agonists: luciferase reporter gene qHTS assay in human keratinocytes (AID 1919969); conditions: KeratinoSens HaCaT ARE-luciferase, luminescence, 24 h; activity, positive = activation: at 92.4 µM (top of the series); also: nearly all actives have a fitted effect of over 35% in size; also: potency is read from the fitted curve at half-maximal effect; as to activity, positive = activation: % is scaled to controls: 0 for no effect and ±100 for the full control effect
[2] = p53 small molecule agonists, cell-based qHTS assay with human liver microsomes (AID 1963577); conditions: HCT-116 p53RE-bla with human liver microsomes, ratio, 16 h; activation: at 66 µM (top of the series) unless noted; also: potency is read from the fitted curve at half-maximal effect;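 as to activation: p53 response element beta-lactamase reporter cells with liver microsomes plus NADPH; % is scaled to controls: 0 for no effect and ±100 for the full control effect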
Summary of the method: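 16 h, 37 C exposure of p53RE-bla cells to compounds with human liver microsomes and NADPH (0.5 mg/mL final each); detection via LiveBLAzer mixture, 2 h dark at room temperature.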

[3] = p53 small molecule agonists, cell-based qHTS assay with human liver microsomes: qHTS cell viability counter screen (AID 1963579); also: nearly all actives have a fitted effect of over 45% in size; also: potency is read from the fitted curve at half-maximal effect
Summary of the method: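 In this multiplexed counter screen, the reporter plates were subsequently treated with CellTiter-Glo so that cell viability, reflected by luminescence, could be recorded for p53RE-bla cells dosed 16 h with compounds under microsomal activation (HLM and NADPH).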

[4] = target: Beta-2 adrenergic receptor (Homo sapiens) (UniProt P07550); assay: Adrenergic beta2 receptor (ADRB2) small molecule agonists, cell-based qHTS assay (AID 1963593); conditions: CHO-ADRB2 cells, cAMP HTRF, 30 min; activation: at 92.4 µM (top of the series) unless noted; also: potency is read from the fitted curve at half-maximal effect;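 as to activation: CHO cells stably overexpressing human ADRB2; % is scaled to controls: 0 for no effect and ±100 for the full control effect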
Summary of the method: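 CHO cells stably over-expressing ADRB2 were plated overnight at 37C, then dosed with compounds plus a stimulation mix containing 100uM IBMX and 25uM Ro-20-1724 for 0.5hr at room temperature. cAMP was measured by HTRF competition, 1hr.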

[5] = p53 small molecule agonists, cell-based qHTS assay (AID 1963582; active = well fitted activation curve with a large enough effect in the signal ratio in the repeat runs, not every such curve was filed as active; inconclusive = weak or mixed curves; the % refers to the signal ratio; also: potency is read from the fitted curve at half-maximal effect; as to activation: % is scaled to controls: 0 for no effect and ±100 for the full control effect); conditions: HCT-116 p53RE-bla reporter, beta-lactamase FRET ratio, 16 h; activation: at 66 µM (top of the series) unless noted
Summary of the method: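 Beta-lactamase reporter cells (p53RE-bla) treated with compounds for 16 h at 37 C; FRET substrate, 2 h, room temperature; fluorescence intensity.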

[6] = cAMP Responsive Elements (CRE) small molecule agonists, cell-based qHTS assay (AID 1963590); conditions: CRE-bla HEK293T, beta-lactamase FRET ratio, 3 h; activation: at 92.4 µM (top of the series) unless noted; also: potency is read from the fitted curve at half-maximal effect
Summary of the method: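 Quantitative HTS for CRE agonists: HEK 293T CRE-bla cells, overnight plating, 3 h compound incubation at 37 C/5% CO2, then 2 h room-temperature LiveBLAzer B/G FRET substrate loading.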

[7] = cAMP Responsive Elements (CRE) small molecule antagonists, cell-based qHTS assay (AID 1963591; active = well fitted inhibition curve with a large enough effect in the signal ratio in the repeat runs, not every such curve was filed as active; inconclusive = weak or mixed curves, or effect the other way; the % refers to the signal ratio; also: potency is read from the fitted curve at half-maximal effect); conditions: CRE-bla HEK293T, beta-lactamase FRET ratio; activity change, negative = inhibition: at 92.4 µM (top of the series) unless noted
Summary of the method: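 Fluorescence intensity from cleaved LiveBLAzer B/G substrate (2 h, room temperature) quantified CRE-bla activity in HEK 293T cells exposed 3 h to compound with 0.25 uM final NKH477.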

[8] = target: D(2) dopamine receptor (Homo sapiens) (UniProt P14416); assay: Dopamine D2 receptor (DRD2) small molecule agonists, cell-based qHTS assay (AID 1963594); conditions: HEK293-DRD2 cAMP HTRF, agonist mode, 30 min; activation: at 92.4 µM (top of the series) unless noted; also: % is scaled to controls: 0 for no effect and ±100 for the full control effect; nearly all actives have a fitted effect of over 35% in size
Summary of the method: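 HEK293 cells stably expressing human DRD2, pre-treated with PDE inhibitor Ro20-1724 (0.1 mM final) and compound 10 min at room temperature, then stimulated with NKH477 (200nM […]) for 30 min. cAMP read by HTRF (665/620 nm).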

[9] = p53 small molecule agonists, cell-based qHTS assay with rat liver microsomes (AID 1963578); conditions: HCT-116 p53RE-bla, beta-lactamase ratio, 16 h; activation: at 66 µM (top of the series) unless noted; also: potency is read from the fitted curve at half-maximal effect
Summary of the method: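 With rat liver microsomes and NADPH present (0.5 mg/mL final each), p53RE-bla cells are treated with compound for 16 h at 37 C. LiveBLAzer detection mixture is then applied for 2 h at room temperature in the dark.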

[10] = target: 5-hydroxytryptamine receptor 2A (Homo sapiens) (UniProt P28223); assay: 5-hydroxytryptamine receptor 2A (HTR2A) small molecule antagonists, cell-based qHTS assay (AID 1963586); also: potency is read from the fitted curve at half-maximal effect; nearly all actives have a fitted effect of over 45% in size
Summary of the method: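 CHO cells stably expressing human HTR2A were plated for 18 h at 37 C, then loaded with calcium dye for 1 h. Compounds were preincubated 5 min at room temperature before DOI (4 nM solution) was added. Kinetic fluorescence was read for 3 min.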

[11] = target: Muscarinic acetylcholine receptor M1 (Homo sapiens) (UniProt P11229); assay: Cholinergic receptor muscarinic 1 (CHRM1) small molecule antagonists, cell-based qHTS assay (AID 1963588); also: potency is read from the fitted curve at half-maximal effect; nearly all actives have a fitted effect of over 40% in size
Summary of the method: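 Compounds were tested at 15 concentrations in three independent runs. Dye-loaded CHRM1-CHO cells were exposed 5 min at room temperature before stimulation by acetylcholine added at 50nM. Intracellular calcium was read kinetically on FDSS for 3 min.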

[12] = target: D(2) dopamine receptor (Homo sapiens) (UniProt P14416); assay: Dopamine D2 receptor (DRD2) small molecule antagonists, cell-based qHTS assay (AID 1963595; active = well fitted inhibition curve with a large enough effect in the signal ratio in the repeat runs, with a control signal flat; inconclusive = weak or mixed curves, or effect the other way; the % refers to the signal ratio; also: potency is read from the fitted curve at half-maximal effect); conditions: HEK293-DRD2 cAMP HTRF antagonist mode; activity change, negative = inhibition: at 92.4 µM (top of the series) unless noted
Summary of the method: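 Stable D2 receptor HEK293 line, 24 h after seeding. Compound preincubated 10 min, then quinpirole (12 nM) with forskolin analogue NKH477 (200 nM), 30 min, room temperature. Detection by time-resolved FRET of cAMP.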

[13] = p53 small molecule agonists, cell-based qHTS assay with rat liver microsomes: qHTS cell viability counter screen (AID 1963580); also: potency is read from the fitted curve at half-maximal effect; nearly all actives have a fitted effect of over 45% in size
Summary of the method: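 After the beta-lactamase ratio was read, CellTiter-Glo was added to the same wells and luminescence measured at 30 min; cells had been treated 16 h at 37 C with compounds, rat liver microsomes and NADPH (0.5 mg/mL final each).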

[14] = p53 small molecule agonists, cell-based qHTS assay: qHTS cell viability counter screen (AID 1963581); also: potency is read from the fitted curve at half-maximal effect; nearly all actives have a fitted effect of over 45% in size
Summary of the method: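 Multiplexed with the reporter read, a CellTiter-Glo step (30 min, room temperature) gauges ATP-based viability of HCT-116 p53RE-bla cells after 16 h compound incubation at 37 C.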

[15] = target: 5-hydroxytryptamine receptor 2A (Homo sapiens) (UniProt P28223); assay: 5-hydroxytryptamine receptor 2A (HTR2A) small molecule agonists, cell-based qHTS assay (AID 1963587); also: nearly all actives have a fitted effect of over 30% in size; also: potency is read from the fitted curve at half-maximal effect
Summary of the method: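 CHO cells stably expressing human HTR2A, plated 18 h, loaded with calcium dye 1 h at 37 C. Agonist mode: compounds added and intracellular calcium fluorescence recorded kinetically for 2 min at 1 sec intervals.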

[16] = target: Beta-2 adrenergic receptor (Homo sapiens) (UniProt P07550); assay: Adrenergic beta2 receptor (ADRB2) small molecule antagonists, cell-based qHTS assay (AID 1963592); conditions: CHO-ADRB2 cells, isoproterenol-stimulated cAMP HTRF ratio, 0.5 h; activity change, negative = inhibition: at 92.4 µM (top of the series) unless noted; also: nearly all actives have a fitted effect of over 50% in size; also: potency is read from the fitted curve at half-maximal effect
Summary of the method: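 Assay format: CHO-ADRB2 cells, 18-20hr seeding at 37C/5% CO2, then compound plus 1nM isoproterenol agonist mix for 0.5hr RT. Homogeneous time-resolved fluorescence cAMP detection after 1hr, expressed as 665/615 nm ratio.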

O=C(O)c1cc2ccccc2nc1C(=O)O
inconclusive: activation [4] 38.2%
active: Potency [1] 17.2 µM
inactive: Potency [2] | Potency [3]

O=c1[nH]nc(-c2ccc([N+](=O)[O-])o2)o1
inactive: Potency [2] | Potency [5] | Potency [8]
inconclusive: Potency [1] 68.6 µM [activator, single point] | Potency [6] 54.5 µM [rising, partial curve] | Potency [7] 54.5 µM [activator, partial curve] | activation [4] 23.6%

CC(C)c1ccccc1C(C)C
inactive: Potency [1] | Potency [8]
inconclusive: Potency [2] 18.2 µM [activator, full curve] | Potency [9] 32.4 µM [activator, partial curve] | Potency [6] 61.2 µM [rising, partial curve, poor fit]

O=C1c2ccccc2Cc2ccccc21
active: Potency [1] 61.6 µM
inconclusive: Potency [2] 36.6 µM [activator, partial curve] | Potency [10] 1.5 µM [inhibitor, full curve] | Potency [11] 846 nM [inhibitor, single point] | Potency [6] 8.7 µM [rising, full curve] | activity change, negative = inhibition [7] 5.61% | activation [4] -4.08%

Three compounds already listed, ordered by count of non-hydrogen atoms, descending:
O=C(O)c1cc2ccccc2nc1C(=O)O
inconclusive: activation [4] 38.2%
active: Potency [1] 17.2 µM
inactive: Potency [2] | Potency [3]

O=C1c2ccccc2Cc2ccccc21
active: Potency [1] 61.6 µM
inconclusive: Potency [2] 36.6 µM [activator, partial curve] | Potency [10] 1.5 µM [inhibitor, full curve] | Potency [11] 846 nM [inhibitor, single point] | Potency [6] 8.7 µM [rising, full curve] | activity change, negative = inhibition [7] 5.61% | activation [4] -4.08%

O=c1[nH]nc(-c2ccc([N+](=O)[O-])o2)o1
inactive: Potency [2] | Potency [5] | Potency [8]
inconclusive: Potency [1] 68.6 µM [activator, single point] | Potency [6] 54.5 µM [rising, partial curve] | Potency [7] 54.5 µM [activator, partial curve] | activation [4] 23.6%

Remaining list, next part.

CC1=C(C/C=C(\C)CCC[C@H](C)CCC[C@H](C)CCCC(C)C)C(=O)c2ccccc2C1=O
inactive: Potency [5] | Potency [12]
inconclusive: Potency [1] 29.8 µM [activator, single point] | Potency [2] 12.6 µM [fluorescent, partial curve] | Potency [4] 5.96 µM [activator, full curve, poor fit]

CC(=O)N1CCN(c2ccc(OC[C@H]3CO[C@](Cn4ccnc4)(c4ccc(Cl)cc4Cl)O3)cc2)CC1
inconclusive: Potency [1] 27.3 µM [activator, single point] | Potency [2] 51.3 µM [falling, single point] | Potency [3] 45.8 µM [cytotoxic, single point] | Potency [13] 45.8 µM [cytotoxic] | Potency [14] 32.4 µM [cytotoxic, partial curve, poor fit] | Potency [5] 45.8 µM | Potency [6] 54.5 µM [rising, partial curve] | Potency [7] 54.5 µM [rising, partial curve] | Potency [4] 68.6 µM [inhibitor] | Potency [12] 17.2 µM [inhibitor, partial curve, poor fit]

O=C(NO)c1ccccc1
active: Potency [4] 20.7 µM
inconclusive: Potency [1] 65.3 µM [activator, single point] | Potency [2] 48.9 µM [rising, single point] | Potency [3] 8.69 µM [cytotoxic, full curve, poor fit] | Potency [5] 7.75 µM | Potency [10] 0.253 µM [inhibitor, full curve, poor fit] | Potency [15] 52.3 µM [activator, single point] | Potency [11] 712 nM [inhibitor, single point] | Potency [6] 46.2 µM [rising, partial curve] | Potency [7] 50.1 µM [activator] | activity change, negative = inhibition [16] 35.2% | activation [8] -7.9%

CC(=O)Nc1ccccc1C
inconclusive: Potency [14] 27.5 µM [rising, single point]
inactive: Potency [1] | Potency [2] | Potency [6] | Potency [7] | Potency [4]

CC[C@]12CCCN3CCc4c(n(c5ccccc45)C(=O)C1)[C@@H]32
inactive: Potency [2]
inconclusive: Potency [1] 13.3 µM [activator, single point] | Potency [3] 9.98 µM [rising, partial curve, poor fit] | Potency [14] 7.07 µM [rising, partial curve] | activation [5] 9.46% [at 30.3 µM] | Potency [15] 9.52 µM [activator, partial curve]

Cc1cc(O)c2c(O)c3c(O)cccc3cc2c1
inactive: Potency [15] | Potency [12]
inconclusive: Potency [1] 33.5 µM [activator] | Potency [2] 19.9 µM [rising, partial curve, poor fit] | Potency [5] 19.9 µM | Potency [10] 13 µM [inhibitor, full curve, poor fit] | Potency [6] 29.8 µM [rising, partial curve, poor fit] | activity change, negative = inhibition [7] 17.7% [at 42.4 µM] | Potency [16] 13.3 µM [inhibitor, partial curve] | activation [4] -3.94% [at 42.5 µM]
